Data as given in PubChem BioAssay AID1224827 (NIAID, 2016)
Screen: 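Retest primary hits on a TNF reporter with six siRNAs per gene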 (follow-up of hits). Cell system: RAW264.7 G9 mouse macrophage reporter clone. Reagents: single siRNA against mouse genes, 100 nM siRNA. Duration: siRNA for 2 days, then LPS about 16 h. Treatment: bacterial lipopolysaccharide (LPS), 10 ng/ml, cells fixed after overnight (about 16 h) stimulation. Measured: 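Imaged nuclear TNF reporter intensity, background removed, scaled per plate and to non-targeting control wells, as z-scores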. Reading the numbers: TNF reporter z-score, mean: higher = stronger Tnf promoter reporter signal. Hit rule: 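Active siRNA: replicate-mean z-score of 2 or more, or -2 or less; no calls for control wells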.
Here is one part, drawn at random, of about 3,800 reagents. About 2,200 of all reagents (57%) were called active. 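Active means a strong reporter change in either direction; calls are per siRNA, not per gene; qiagen siRNAs gave weaker effects.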 Not all columns of the deposit are shown.

TNF reporter z-score, mean, by gene and reagent
Bpifb5 (BPI fold containing family B, member 5): SID315488316 -0.918 inactive; SID315488317 -2.7 active; SID315488318 -4.87 active; SID315488319 3.19 active; SID315488320 2.12 active; SID315488321 -4.08 active
Bambi (BMP and activin membrane-bound inhibitor): SID315486522 -4.62 active; SID315486523 -4.87 active; SID315486524 -5.45 active; SID315486525 1.78 inactive; SID315486526 0.24 inactive; SID315486527 -3.59 active
Zfp286 (zinc finger protein 286): SID315487989 -0.203 inactive; SID315487990 -1.66 inactive; SID315487991 -3.57 active; SID315487992 5.24 active; SID315487993 1.01 inactive; SID315487994 1.19 inactive
Vmp1 (vacuole membrane protein 1): SID315486828 6.05 active; SID315486829 -1.18 inactive; SID315486830 -1.5 inactive; SID315486831 -1.15 inactive; SID315486832 -2.19 active; SID315486833 -2.43 active

2 entries from above, ordered by “TNF reporter z-score, mean”, low to high:
gene	PubChem SID	TNF reporter z-score, mean	Call
Zfp286 (zinc finger protein 286)	SID315487994	1.19	inactive
Vmp1 (vacuole membrane protein 1)	SID315486828	6.05	active
